Results reported in patent publication US7960349B2 (Bristol-Myers Squibb Company, priority 2006, dated 2011).
HELM strings list residues between dots; [ac] is acetyl, [am] amide, other brackets name non-standard units.

What was measured:
[1] = general procedure: Fmoc solid-phase peptide synthesis; Sieber amide; DIC/HOAt; HBTU/HOBt/DIEA; HATU/HOAt; conditions: whole synthesis
[2] = general procedure: Fmoc solid-phase peptide synthesis; Rink amide MBHA, Sieber amide or PAL resin; 2-chlorotrityl chloride resin for protected fragments; DIC/HOAt; HBTU/HOBt/DIEA; HATU/HOAt; conditions: whole synthesis, scale of the general procedure 0.1 mmol (ABI 433A)

PEPTIDE1{H.[NMe-D-Ala].E.G.T.[aMe-Phe(2-F)].T.S.D.[Bip(2'-Et-4'-OMe)].[4-(2'-MePh)-3-PyAla].[am]}$$$$V2.0
isolated mass ([1]; scale 0.015 mmol): 5.2 mg | isolated yield [2]: 18.5%

PEPTIDE1{H.[aMePro].E.G.T.[aMePhe(2-F)].T.H.D.[Bip(2'-Et-4'-OMe)].[4-(2'-MePh)-3-PyrAla].[am]}$$$$V2.0
isolated mass ([1]; scale 0.05 mmol): 21.7 mg | isolated yield [2]: 42%
